“And” between values parts separate entries of the source, which are not always exact repeats. Identical values can stand only once. Like-named read-outs stand apart in the source and are kept apart here.
Key:
[1] = system: methane emissions by sheep; assay type: in vivo
[2] = system: dry matter degradation of oats and alfalfa hay in the rumen; assay type: in vivo, sheep
[3] = system: methane production of dairy cows; set-up: species or system Holstein X Friesian dairy cows; conditions: in vivo

Compound | intake ([1]; sheep, 100 mg per animal and day via ruminal cannula, day 14) [kg/day] | intake ([1]; sheep, 100 mg per animal and day via ruminal cannula, day 29) [kg/day] | intake ([1]; sheep, 100 mg per animal and day via ruminal cannula, day 30) [kg/day] | intake ([1]; sheep, 100 mg per animal and day via ruminal cannula, days 29-30 pooled) [kg/day] | DMD oats (dry matter degradation) ([2]; 24 hours in the rumen of sheep, days 22 and 23, 100 mg per animal and day) [%] | DMD alfalfa hay (dry matter degradation) ([2]; 48 hours in the rumen of sheep, days 22 and 23, 100 mg per animal and day) [%] | intake ([1]; in vivo) | DMD alfalfa hay (dry matter degradation) ([2]; in vivo) [%] | DMD oats (dry matter degradation) ([2]; in vivo) [%] | DMI [3] | effect on daily dry matter intake (DMI) [3]
CCOC(=O)CCO[N+](=O)[O-] [Additive 1, ethyl-3-nitrooxypropionate, reference compound] | 0.849 | 0.944 | 0.925 | 0.933 | 74.0 | 78.3 |  |  |  |  | 
O=[N+]([O-])OCCCO [Compound 1, 3-Nitrooxypropanol] |  |  |  |  |  |  | 0.922 kg/day and 0.747 kg/day and 0.823 kg/day and 0.867 kg/day | 78.8 | 70.6 | 18.8 kg/day and 18.5 kg/day | no significant effect

— patent US9266814B2, “Use of nitrooxy organic molecules in feed for reducing methane emission in ruminants, and/or to improve ruminant performance” (DSM IP ASSETS B.V., priority 2010, dated 2016)
